Results taken from patent US20080038256A1 (SEOUL NATIONAL UNIVERSITY INDUSTRY FOUNDATION, published 2008).
Residue numbers refer to the chain shown, from its start. Results are given in words; binding and its absence hold for the method and conditions named. Some binding calls cover weakened binding; strength is not graded here. Each block holds one binder with its values, some of them ahead of it.

By UniProt entry, the sequences of proteins in these tests, tags left out. Residues count along the entry.
UniProt P14210, residues 32-728: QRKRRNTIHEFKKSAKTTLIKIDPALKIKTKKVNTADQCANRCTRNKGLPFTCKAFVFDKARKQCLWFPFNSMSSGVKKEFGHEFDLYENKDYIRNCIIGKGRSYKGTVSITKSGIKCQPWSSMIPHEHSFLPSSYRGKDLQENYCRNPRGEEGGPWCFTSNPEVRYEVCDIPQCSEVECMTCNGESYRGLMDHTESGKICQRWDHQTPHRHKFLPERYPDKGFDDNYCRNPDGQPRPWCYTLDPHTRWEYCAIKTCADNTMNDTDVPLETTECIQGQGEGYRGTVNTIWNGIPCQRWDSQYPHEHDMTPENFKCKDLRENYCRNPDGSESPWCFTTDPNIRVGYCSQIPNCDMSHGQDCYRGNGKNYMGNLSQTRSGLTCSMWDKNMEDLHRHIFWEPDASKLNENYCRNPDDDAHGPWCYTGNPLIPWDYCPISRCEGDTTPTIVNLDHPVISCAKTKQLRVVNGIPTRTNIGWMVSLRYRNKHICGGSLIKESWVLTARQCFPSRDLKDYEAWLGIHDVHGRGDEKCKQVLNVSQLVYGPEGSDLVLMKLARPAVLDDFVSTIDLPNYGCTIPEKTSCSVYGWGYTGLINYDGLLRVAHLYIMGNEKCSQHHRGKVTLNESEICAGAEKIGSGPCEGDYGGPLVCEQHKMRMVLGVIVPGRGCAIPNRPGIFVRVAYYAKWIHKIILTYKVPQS

How the values were obtained:
[1] = molecular target: HGF/SF (hepatocyte growth factor/scatter factor) (UniProt P14210); assay: SPR (BIAcore), HGF/SF immobilized
[2] = molecular target: HGF/SF (hepatocyte growth factor/scatter factor) (UniProt P14210); assay: phage ELISA, HGF/SF coated, anti-M13 HRP detection
[3] = molecular target: HGF/SF (hepatocyte growth factor/scatter factor) (UniProt P14210); assay: competition ELISA: HGF/SF coated on the plate, cMET/Fc chimera as the blocked ligand mixed with the varied Fab, bound cMET/Fc detected with HRP anti-human Fc, Abs. at 450 nm, triplicates
[4] = molecular target: HGF/SF (hepatocyte growth factor/scatter factor) (UniProt P14210); assay: affinity examination of the HSFN 68 clones on HGF/SF; method not named in this paragraph

binding [1]: binds
binding [2]: binds
binding [3]: binds
B1: HSFN 68-13 Fab (Fab, V domains shown)
VH: QQQLVESGGGVVRPGGSLRLSCAASGFTFSTYYMSWVRQAPGKGLEWIGYIGTSSGTTYYANSVKGRFTISSDNAKNSVYLQMNSLRPEDTAVYYCARGLGRINLWGPGTLVTVSS
VL: ELQMTQSPSSLSASVGDRVTITCRASQSISTWLAWYQQKPGKAPKLLIYKASTLESGVPLRFSGGGSGTDFTLTISSLQSEDFATYFCQQSYSLPPTFGQGTKVEVKR
notes: also called anti-HGF/SF Fab humanized antibody

binding [1]: binds
binding [2]: binds
binding [4]: binds
B2: HSFN 68-16 Fab (Fab, V domains shown)
VH: B1 VH with V11L, R13Q, V37I, K76Q, P108Q
VL: ELVMTQSPSTLSASVGDRVTITCRASQSISSWLAWYQQKPGKAPKLLIYKASTLESGVSSRFSGGGSGTEFTLTISSLQPDDFATYYCQQYSRYSGGTFGQGTKVEIRR
notes: Fab with human Ckappa and human CH1, expressed from pComb3X in E. coli HB2151

binding [1]: binds
binding [2]: binds
binding [4]: binds
B3: HSFN 68-41 Fab (Fab, V domains shown)
VH: B1 VH with V11L, R13Q, I48V, P108Q
VL: B2 VL with V3Q, T10S, L11V, T22S, S28D, S30R, W32L, S59P, G65S, S77N
notes: as for B2

binding [1]: binds
binding [2]: binds
binding [4]: binds
B4: HSFN 68-27 Fab (Fab, V domains shown)
VH: B1 VH with Q2V, V11L, R13K, L18R, K76Q, P108Q
VL: ELQMTQSPSTLSASVGDRVTITCRASQSISSRLAWYQQKPGKAPKLLIYRASTLEGGVPSRFSGSGSGTEFTLTISGLQPDDFATYYCQQYSTFSPTFGQGTQVDIKR
notes: as for B2
